“Also recorded” adds a separate entry of the source. At least one compound was matched to its structure with a doubt left.
Experiment: Release of fluorescein layered on silicon in pH buffers, light absorption at 490 nm
Assay type: physicochemical

## O=C1OC2(c3ccc(O)cc3Oc3cc(O)ccc32)c2ccccc21 [fluorescein]
pH 1.2 buffer, followed up to 90 min
  release of fluorescein at pH 1.2: dissolves relatively rapidly
pH 6.8 buffer
  release of fluorescein at pH 6.8: dissolves relatively rapidly; also recorded: more rapid dissolution at pH 6.8 compared to pH 1.2
Without coating, pH 1.2 and pH 6.8
  time to complete release of fluorescein: ≤ 10 min

From patent US9492805B2, “Initiated chemical vapor deposition of vinyl polymers for the encapsulation of particles” (Massachusetts Institute of Technology, priority 2005, dated 2016)
